Laboratory results published in paper doi:10.1101/2021.04.22.440930.
Results are given in words; binding and its absence hold for the method and conditions named. In cells and extracts the contact can be indirect. Some entries that bind do so weakly or less than the wild type. Blank lines part the entries; values can stand above or below the molecule they belong to.

Chains of the proteins cited; added tags and fusions are not shown. Lines headed by an entry give the natural chain unless they say otherwise; changes in a name come on top. A line that says so, or that is headed by a name, gives the form on record, which may keep a tag or linker.
UniProt Q13283: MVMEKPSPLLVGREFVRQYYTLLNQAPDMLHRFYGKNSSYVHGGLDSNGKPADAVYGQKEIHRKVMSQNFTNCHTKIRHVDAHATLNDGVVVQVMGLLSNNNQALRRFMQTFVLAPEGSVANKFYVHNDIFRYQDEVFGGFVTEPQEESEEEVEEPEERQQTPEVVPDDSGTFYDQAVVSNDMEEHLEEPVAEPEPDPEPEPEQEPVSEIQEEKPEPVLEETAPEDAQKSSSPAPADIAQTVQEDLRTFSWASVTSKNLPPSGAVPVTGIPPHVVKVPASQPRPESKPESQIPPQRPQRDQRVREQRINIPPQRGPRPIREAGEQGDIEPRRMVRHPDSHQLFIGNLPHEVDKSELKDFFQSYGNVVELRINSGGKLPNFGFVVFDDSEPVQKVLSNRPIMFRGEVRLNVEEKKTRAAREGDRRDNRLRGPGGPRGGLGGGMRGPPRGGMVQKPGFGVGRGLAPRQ
GFP-G3BP1 6KR (Q13283, form named): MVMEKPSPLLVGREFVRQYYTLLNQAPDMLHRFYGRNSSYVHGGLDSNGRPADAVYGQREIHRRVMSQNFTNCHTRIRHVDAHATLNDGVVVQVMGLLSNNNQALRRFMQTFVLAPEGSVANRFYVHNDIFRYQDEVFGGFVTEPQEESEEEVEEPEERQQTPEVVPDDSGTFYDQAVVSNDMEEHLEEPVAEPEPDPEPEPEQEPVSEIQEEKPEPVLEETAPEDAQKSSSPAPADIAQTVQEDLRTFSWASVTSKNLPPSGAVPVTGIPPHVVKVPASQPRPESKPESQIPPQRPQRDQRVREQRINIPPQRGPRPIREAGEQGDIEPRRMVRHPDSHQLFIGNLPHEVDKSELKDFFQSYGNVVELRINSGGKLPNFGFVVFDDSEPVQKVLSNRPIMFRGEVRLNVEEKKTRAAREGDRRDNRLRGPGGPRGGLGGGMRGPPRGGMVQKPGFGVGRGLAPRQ

Experiments:
Assay in all cases: co-IP
GFP-G3BP1 6KR = GFP-G3BP1 6KR (UniProt Q13283)
[1] = molecular target: G3BP1 (endogenous) (human (endogenous in U2OS)) (UniProt Q13283)
GFP-G3BP1 WT = GFP-G3BP1 WT (UniProt Q13283)

binding (GFP-G3BP1 6KR): binds weakly
Molecule: valosin-containing protein (VCP), endogenous (from UniProt P55072 1-806) (enzyme)

binding [1]: binds | binding (GFP-G3BP1 WT): binds
B1: FAS-associated factor 2 (FAF2), endogenous (protein, UniProt Q96CS3 1-445)
chain: MAAPEERDLTQEQTEKLLQFQDLTGIESMDQCRHTLEQHNWNIEAAVQDRLNEQEGVPSVFNPPPSRPLQVNTADHRIYSYVVSRPQPRGLLGWGYYLIMLPFRFTYYTILDIFRFALRFIRPDPRSRVTDPVGDIVSFMHSFEEKYGRAHPVFYQGTYSQALNDAKRELRFLLVYLHGDDHQDSDEFCRNTLCAPEVISLINTRMLFWACSTNKPEGYRVSQALRENTYPFLAMIMLKDRRMTVVGRLEGLIQPDDLINQLTFIMDANQTYLVSERLEREERNQTQVLRQQQDEAYLASLRADQEKERKKREERERKRRKEEEVQQQKLAEERRRQNLQEEKERKLECLPPEPSPDDPESVKIIFKLPNDSRVERRFHFSQSLTVIHDFLFSLKESPEKFQIEANFPRRVLPCIPSEEWPNPPTLQEAGLSHTEVLFVQDLTDE

binding [1]: no binding
B2: ZFAND1 (protein, UniProt Q8TCF1 1-268)
chain: MAELDIGQHCQVEHCRQRDFLPFVCDDCSGIFCLEHRSRESHGCPEVTVINERLKTDQHTSYPCSFKDCAERELVAVICPYCEKNFCLRHRHQSDHECEKLEIPKPRMAATQKLVKDIIDSKTGETASKRWKGAKNSETAAKVALMKLKMHADGDKSLPQTERIYFQVFLPKGSKEKSKPMFFCHRWSIGKAIDFAASLARLKNDNNKFTAKKLRLCHITSGEALPLDHTLETWIAKEDCPLYNGGNIILEYLNDEEQFCKNVESYLE
